Earlier results, collected in patent US20070238696A1, “Dosage unit for cardioprotection” (priority 2000, published 2007).

System: plasma LDL
Conditions: in vivo

CC(C)c1c(C(=O)Nc2ccccc2)c(-c2ccccc2)c(-c2ccc(F)cc2)n1CC[C@@H](O)C[C@@H](O)CC(=O)O [atorvastatin]
Maximal plasma LDL reduction: 60%
